Results are given in words; binding and its absence hold for the method and conditions named. A result given as binding can be weak or reduced; the word gives no strength.

Assay [1] has as its target cynomolgus monkey LILRB4 (cynomolgus monkey). As to the kind of experiment: flow cytometry, cynob4-expressing CHO cells, MFI.
Assay [2] has the same target. In words: flow cytometry on cynomolgus monkey LILRB4, MFI. A general note: Flow cytometry measures light scatter and fluorescence of single cells or particles in a stream.

B1: B4-49 (antibody, V domains shown)
VH: QSLEESGGDLVKPGASLTLTCTASGFDFSSSGWICWVRQAPGKGLELIACIYSGRSGSTYYASWAKGRVTISKTSSTTVTLQMTSLTAADTATYFCARALYVDYVDYDYIDLWGPGTLVTVSS
VL: ELDLTQTPASVEAAVGGTVTIKCQASQSTGIRLAWYQQKPGQPPKLLMYATSNLASGVSSRFKGSGSGTEFTLTISDLECADAATYYCQYSYYGSSYVFDFGGGTEVEIK
notes: Rabbit monoclonal antibody
For B1, in assay [1], the binding result is on record as “binds”.

B2: B4-87 (antibody, V domains shown)
VH: QSVKESGGDLVKPGASLTLTCTASGFSFISTYWICWVRQAPGKGLELIACIYTGGSGSTYYASWAKGRFTISKTSSTTVTLQLNSLTAADTATYFCARALYVDYVDYDYIDLWGPGTLVTVSS
VL: ELDLTQTPASVEAAVGGTVTIKCQASENIGSRLAWYQQKPGQPPKLLIYAASNLASGVSSRFKGSRSGTQFTLTISDLECADAAIYYCQCSYYGSTYVFGFGGGTEVEIK
notes: Rabbit monoclonal antibody
Consider B2, for which the binding entry in assay [1] was “binds”.

B3: B4-86 (antibody, V domains shown)
VH: EQSVESGGDLVKPEGSLTLTCTVSGFSFSSSYWICWVRQAPGKGLEWIGCIGTGSGSTYYGSWAKGRFTISKTSSTTVTLQMTSLTAADTATYFCVRGAGYSSYRLWGPGTLVTISS
VL: ELDMTQTPASVSEPVGGTVTIKCQASESVSNWLAWYQQKPGQRPKLLIYGASTLESGVPSRFSGSGSGTEFTLTISNLECADAATYYCQQGYDWDNIDNAFGGGTEVVVK
notes: Rabbit monoclonal antibody
For B3, in assay [1], the binding entry is recorded as “binds”.

B4: h193 antibody No. 19 (h193-H3 / h193-K1) (antibody, V domains shown)
VH: EVQLVESGGGLVQPGGSLRLSCAASGFSLSSSYWISWVRQAPGKGLEWIGSIDSGSVGITYYATWAKGRFTISRDNSKNTLYLQMNSLRAEDTAVYYCARHGDNWALDLWGQGTLVTVSS
VL: DIQMTQSPSTLSASVGDRVTITCQASQSINSWLAWYQQKPGKAPKLLIYKASTLASGVPSRFSGSGSGTEFTLTISSLQPDDFATYYCQHGYIRGDLDNVFGGGTKVEIK
Turning to B4, in assay [2], the binding result is recorded as “binds”.

B5: h193 antibody No. 36 (h193-H7 / h193-K2) (antibody, V domains shown)
VH: EVQLVESGGGLVQPGGSLRLSCAASGFSLSSSYWISWVRQAPGKGLEWIGSIDSGSVGITYYATWVKGRFTISRDNSKNTLYLQMNSLRAEDTAVYYCARHGDNWALDLWGQGTLVTVSS
VL: DLVMTQSPSTLSASVGDRVTITCQASQSINSWLAWYQQKPGKPPKLLIYKASTLASGVSSRFSGSGSGTEFTLTISSLQPDDVATYYCQHGYIRGDLDNVFGGGTKVEIK
As to B5, in assay [2], the binding result is recorded as “binds”.

B6: h193 antibody No. 31 (h193-H6 / h193-K1) (antibody, V domains shown)
VH: EVQLVESGGGLVQPGGSLRLSCAASGFSLSSSYWISWVRQAPGKGLEWIGSIDSGSVGITYYATSAKGRFTISRDNSKNTLYLQMNSLRAEDTAVYYCARHGDNWALDLWGQGTLVTVSS
VL: DIQMTQSPSTLSASVGDRVTITCQASQSINSWLAWYQQKPGKAPKLLIYKASTLASGVPSRFSGSGSGTEFTLTISSLQPDDFATYYCQHGYIRGDLDNVFGGGTKVEIK
Take B6: the binding result in assay [2] is recorded as “binds”.

B7: h193 antibody No. 35 (h193-H7 / h193-K1) (antibody, V domains shown)
VH: EVQLVESGGGLVQPGGSLRLSCAASGFSLSSSYWISWVRQAPGKGLEWIGSIDSGSVGITYYATWVKGRFTISRDNSKNTLYLQMNSLRAEDTAVYYCARHGDNWALDLWGQGTLVTVSS
VL: DIQMTQSPSTLSASVGDRVTITCQASQSINSWLAWYQQKPGKAPKLLIYKASTLASGVPSRFSGSGSGTEFTLTISSLQPDDFATYYCQHGYIRGDLDNVFGGGTKVEIK
Consider B7, for which the binding result in assay [2] is “binds”.

B8: h193 antibody No. 28 (h193-H5 / h193-K2) (antibody, V domains shown)
VH: EVQLVESGGGLVQPGGSLRLSCAASGFSLSSSYWISWVRQAPGKGLEWIGVIDSGSVGITYYATWAKGRFTISRDNSKNTLYLQMNSLRAEDTAVYYCARHGDNWALDLWGQGTLVTVSS
VL: DLVMTQSPSTLSASVGDRVTITCQASQSINSWLAWYQQKPGKPPKLLIYKASTLASGVSSRFSGSGSGTEFTLTISSLQPDDVATYYCQHGYIRGDLDNVFGGGTKVEIK
Regarding B8, in assay [2], the binding entry was “binds”.

B9: h193 antibody No. 24 (h193-H4 / h193-K2) (antibody, V domains shown)
VH: EVQLVESGGGLVQPGGSLRLSCAASGFSLSSSYWISWVRQAPGKGLEWVSSIDSGSVGITYYATWAKGRFTISRDNSKNTLYLQMNSLRAEDTAVYYCARHGDNWALDLWGQGTLVTVSS
VL: DLVMTQSPSTLSASVGDRVTITCQASQSINSWLAWYQQKPGKPPKLLIYKASTLASGVSSRFSGSGSGTEFTLTISSLQPDDVATYYCQHGYIRGDLDNVFGGGTKVEIK
Turning to B9, in assay [2], the binding result was “binds”.

B10: h193 antibody No. 23 (h193-H4 / h193-K1) (antibody, V domains shown)
VH: EVQLVESGGGLVQPGGSLRLSCAASGFSLSSSYWISWVRQAPGKGLEWVSSIDSGSVGITYYATWAKGRFTISRDNSKNTLYLQMNSLRAEDTAVYYCARHGDNWALDLWGQGTLVTVSS
VL: DIQMTQSPSTLSASVGDRVTITCQASQSINSWLAWYQQKPGKAPKLLIYKASTLASGVPSRFSGSGSGTEFTLTISSLQPDDFATYYCQHGYIRGDLDNVFGGGTKVEIK
As for B10, the binding result in assay [2] is listed as “binds”.

B11: h193 antibody No. 27 (h193-H5 / h193-K1) (antibody, V domains shown)
VH: EVQLVESGGGLVQPGGSLRLSCAASGFSLSSSYWISWVRQAPGKGLEWIGVIDSGSVGITYYATWAKGRFTISRDNSKNTLYLQMNSLRAEDTAVYYCARHGDNWALDLWGQGTLVTVSS
VL: DIQMTQSPSTLSASVGDRVTITCQASQSINSWLAWYQQKPGKAPKLLIYKASTLASGVPSRFSGSGSGTEFTLTISSLQPDDFATYYCQHGYIRGDLDNVFGGGTKVEIK
Turning to B11, the binding result in assay [2] is on record as “binds”.

B12: h193 antibody No. 37 (h193-H7 / h193-K3) (antibody, V domains shown)
VH: EVQLVESGGGLVQPGGSLRLSCAASGFSLSSSYWISWVRQAPGKGLEWIGSIDSGSVGITYYATWVKGRFTISRDNSKNTLYLQMNSLRAEDTAVYYCARHGDNWALDLWGQGTLVTVSS
VL: DIQMTQSPSTLSASVGDRVTITCRASQSINSWLAWYQQKPGKAPKLLIYKASTLASGVPSRFSGSGSGTEFTLTISSLQPDDFATYYCQHGYIRGDLDNVFGGGTKVEIK
As to B12, the binding entry in assay [2] is on record as “binds”.

B13: h193 antibody No. 33 (h193-H6 / h193-K3) (antibody, V domains shown)
VH: EVQLVESGGGLVQPGGSLRLSCAASGFSLSSSYWISWVRQAPGKGLEWIGSIDSGSVGITYYATSAKGRFTISRDNSKNTLYLQMNSLRAEDTAVYYCARHGDNWALDLWGQGTLVTVSS
VL: DIQMTQSPSTLSASVGDRVTITCRASQSINSWLAWYQQKPGKAPKLLIYKASTLASGVPSRFSGSGSGTEFTLTISSLQPDDFATYYCQHGYIRGDLDNVFGGGTKVEIK
For B13, the binding result in assay [2] is “binds”.

B14: h193 antibody No. 32 (h193-H6 / h193-K2) (antibody, V domains shown)
VH: EVQLVESGGGLVQPGGSLRLSCAASGFSLSSSYWISWVRQAPGKGLEWIGSIDSGSVGITYYATSAKGRFTISRDNSKNTLYLQMNSLRAEDTAVYYCARHGDNWALDLWGQGTLVTVSS
VL: DLVMTQSPSTLSASVGDRVTITCQASQSINSWLAWYQQKPGKPPKLLIYKASTLASGVSSRFSGSGSGTEFTLTISSLQPDDVATYYCQHGYIRGDLDNVFGGGTKVEIK
Regarding B14, the binding result in assay [2] is on record as “binds”.

B15: h193 antibody No. 20 (h193-H3 / h193-K2) (antibody, V domains shown)
VH: EVQLVESGGGLVQPGGSLRLSCAASGFSLSSSYWISWVRQAPGKGLEWIGSIDSGSVGITYYATWAKGRFTISRDNSKNTLYLQMNSLRAEDTAVYYCARHGDNWALDLWGQGTLVTVSS
VL: DLVMTQSPSTLSASVGDRVTITCQASQSINSWLAWYQQKPGKPPKLLIYKASTLASGVSSRFSGSGSGTEFTLTISSLQPDDVATYYCQHGYIRGDLDNVFGGGTKVEIK
In the case of B15, in assay [2], the binding entry is recorded as “binds”.

B16: B4-116-1 (antibody, V domains shown)
VH: EQSVEESGGDLVKPGASLTLTCAASGFSFSSTYCMCWVRQAPGKGLEWIACIHGVSTNNRWYASWPKGRFTISKTSSTTVTLQMTSLTAADTATYFCARSDTDYEWGLSLWGPGTLVTISS
VL: ELDLTQTPASVSEPVGGTVTIKCQASESIGSRLAWYQQKPGQRPKLLIYKASTLASGVPSRFSGSGSGTEFTLTVSDLECADVAAYYCQCAGQSSTWAFGGGTEVEIK
notes: Rabbit monoclonal antibody
On to B16, for which the binding entry in assay [1] is listed as “binds”.

B17: B4-116-2 (antibody, V domains shown)
VH: EQSVEESGGDLVKPGASLTLTCAASGFSFSSTYCMCWVRQAPGKGLEWIACIHGVSTNNRWYASWPKGRFTISKTSSTTVTLQMTSLTAADTATYFCARSDTDYEWGLSLWGPGTLVTISS
VL: ELVMTQTPASVEAVVGGTVTIKCQASESIGSRLAWYQQKPGQRPKLLIYKASTLASGVPSRFSGSGSGTEFTLTVSDLECADVAAYYCQCAGQSSTWAFGGGTEVVVK
notes: Rabbit monoclonal antibody
As to B17, in assay [1], the binding entry is listed as “binds”.

B18: B4-15-1 (antibody, V domains shown)
VH: SGGLEESGGRLVTPGTPLTLTCTASGFTINSAHMSWVRQAPGKGLEWIGFSTTGGPSYYANWAKGRFTISRTSTTVDLEITSPTIEDTATYFCARDGPGNNIDMDLWGQGTLVTITS
VL: ELDLTQTPASVSEPVGGTVTIKCQASQNRGGSIAWYQQKPGQPPKLLIYSASTLASGVPSRFSGSGYGTEFTLTISGVQCADAGTYYCQSTIYSISDIGAFGGGTEVVVK
notes: Rabbit monoclonal antibody against human LILRB4 ECD
B18: the binding entry in assay [1] is reported as “binds”.

For the origin of these results see patent US20210371518A1 (University of Texas, published 2021).
